# No constants are given. Whether binding was seen depends on the method and setting. In cells and extracts the contact can be indirect. These calls come from enrichment with a bait or labelling near it, and not all partners need be listed. Tags and fused reporters may be left off the sequences shown.
# T1: GFP-AGO1 (ARGONAUTE1 fused to GFP, line pAGO1:GFP-AGO1 ago1-27) (Arabidopsis thaliana), O04379
# T1 chain: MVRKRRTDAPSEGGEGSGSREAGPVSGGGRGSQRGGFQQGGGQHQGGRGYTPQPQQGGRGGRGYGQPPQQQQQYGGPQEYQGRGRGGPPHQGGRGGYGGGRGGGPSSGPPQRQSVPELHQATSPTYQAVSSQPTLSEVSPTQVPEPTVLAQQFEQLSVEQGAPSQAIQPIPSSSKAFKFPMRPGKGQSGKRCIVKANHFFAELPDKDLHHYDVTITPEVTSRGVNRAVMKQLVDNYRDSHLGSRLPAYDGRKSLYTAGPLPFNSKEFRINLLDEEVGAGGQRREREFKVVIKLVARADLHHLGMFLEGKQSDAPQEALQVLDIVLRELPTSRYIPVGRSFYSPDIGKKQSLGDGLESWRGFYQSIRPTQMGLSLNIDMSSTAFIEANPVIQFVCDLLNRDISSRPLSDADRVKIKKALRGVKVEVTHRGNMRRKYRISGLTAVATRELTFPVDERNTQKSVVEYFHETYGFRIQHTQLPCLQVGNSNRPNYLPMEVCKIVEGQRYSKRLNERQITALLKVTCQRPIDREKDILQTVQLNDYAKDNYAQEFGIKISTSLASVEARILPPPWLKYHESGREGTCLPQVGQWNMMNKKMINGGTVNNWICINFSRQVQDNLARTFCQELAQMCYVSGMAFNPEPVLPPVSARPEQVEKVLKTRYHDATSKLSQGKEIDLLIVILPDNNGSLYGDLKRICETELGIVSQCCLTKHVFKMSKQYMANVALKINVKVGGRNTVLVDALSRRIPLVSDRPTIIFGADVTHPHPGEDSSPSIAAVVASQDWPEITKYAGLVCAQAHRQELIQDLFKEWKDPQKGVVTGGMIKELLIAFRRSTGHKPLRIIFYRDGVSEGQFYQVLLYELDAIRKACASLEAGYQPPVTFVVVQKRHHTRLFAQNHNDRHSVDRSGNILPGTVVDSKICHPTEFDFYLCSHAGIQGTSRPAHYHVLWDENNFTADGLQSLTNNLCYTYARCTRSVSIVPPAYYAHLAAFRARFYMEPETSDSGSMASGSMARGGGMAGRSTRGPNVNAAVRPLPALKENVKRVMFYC
# T2: GFP-AGO1 (ARGONAUTE1 fused to GFP, line pAGO1:GFP-AGO1 ago1-27) (Arabidopsis thaliana) (UniProt O04379)
# T2 sequence: T1 chain
# B1: UP-…1, Q9FJR0 1-1254 (protein)
# chain: MDSQQSDLFDTASQPDTVADEYTFLEFNTQGDSEFDYQDFGSPTAWPTPSDSISIADVADRGEGGAAADHHSEASSPSSLSAGAGNGAKVGRGGVGGSGGVSSSSQVDALAAGVGNLNFEETGDDDGFDYGKNDFTEHACKYCGISNPACVVRCNVASCRKWFCNSRGNTSGSHIVNHLVRAKHKEVCLHRDSPLGETILECYNCGCRNVFLLGFISAKTDSVVVLLCRDPCLNVNALKDMNWDLSQWCPLIDDRCFLPWLVKVPSEQEQLRARQISAQQINKIEELWKTNPDATLEDLEKPGVDDEPQPVQPKYEDAYQYQNVFAPLIKLEADYDKMMKESQSKENLTVRWDIGLNKKRVAYFVFPKEENELRLVPGDELRLRYSGDAVHPSWQSVGHVIKLTAQEEVALELRANQGVPIDVNHGFSVDFVWKSTSFDRMQGAMKNFAVDETSVSGYIYHQLLGHEVEAQMVRNTLPRRFGVPGLPELNASQVNAVKSVLQKPISLIQGPPGTGKTVTSAAIVYHMAKQGQGQVLVCAPSNVAVDQLAEKISATGLKVVRLCAKSREAVSSPVEYLTLHYQVRHLDTSEKSELHKLQQLKDEQGELSSSDEKKYKNLKRATEREITQSADVICCTCVGAADLRLSNFRFRQVLIDESTQATEPECLIPLVLGVKQVVLVGDHCQLGPVIMCKKAARAGLAQSLFERLVTLGIKPIRLQVQYRMHPALSEFPSNSFYEGTLQNGVTIIERQTTGIDFPWPVPNRPMFFYVQLGQEEISASGTSYLNRTEAANVEKLVTAFLKSGVVPSQIGVITPYEGQRAYIVNYMARNGSLRQQLYKEIEVASVDSFQGREKDYIILSCVRSNEHQGIGFLNDPRRLNVALTRARYGIVILGNPKVLSKQPLWNGLLTHYKEHECLVEGPLNNLKQSMVQFQKPRKIYNDRRLFYGGGAGMIGNDNFGSGNPNADRRGSRGRAGGSYLPSGPPNGARPGLHPAGYPIPRVPLSPFPGGPPSQPYAIPTRGPVGAVPHAPQPGNHGFGAGRGTSVGGHLPHQQATQHNVGTIGPSLNFPLDSPNSQPSPGGPLSQPGYGSQAFRDGFSMGGISQDFLADDIKSQGSHDPYNMADFATQASPGGFAVDYATQGAHGAFPGNFMNQNSQGGYSRFSGINDFMSQEYMAHGGQGLFTQAGFIDSSQDDGQQNPYGVNNPNLQSQGLPNSLYSQPFAHYNTQPLNLSGPQQSQPNQSSQNPKHPYNG
# B2: RNA helicase RH8 (protein, UniProt Q8RXK6 1-505)
# chain: MNNRGRYPPGIGAGRGAFNPNPNYQSRSGYQQHPPPQYVQRGNYAQNHQQQFQQAPSQPHQYQQQQQQQQQWLRRGQIPGGNSNGDAVVEVEKTVQSEVIDPNSEDWKARLKLPAPDTRYRTEDVTATKGNEFEDYFLKRELLMGIYEKGFERPSPIQEESIPIALTGRDILARAKNGTGKTAAFCIPVLEKIDQDNNVIQAVIIVPTRELALQTSQVCKELGKHLKIQVMVTTGGTSLKDDIMRLYQPVHLLVGTPGRILDLTKKGVCVLKDCSVLVMDEADKLLSQEFQPSVEHLISFLPESRQILMFSATFPVTVKDFKDRFLTNPYVINLMDELTLKGITQFYAFVEERQKIHCLNTLFSKLQINQSIIFCNSVNRVELLAKKITELGYSCFYIHAKMLQDHRNRVFHDFRNGACRNLVCTDLFTRGIDIQAVNVVINFDFPKNAETYLHRVGRSGRFGHLGLAVNLITYEDRFNLYRIEQELGTEIKQIPPHIDQAIYCQ
# B3: RNA helicase RH53 (protein, UniProt Q9LUW5 82-616)
# chain: GFAISESSERRVGDSESVGGDGLAISELGISPEIVKALSSKGIEKLFPIQKAVLEPAMEGRDMIGRARTGTGKTLAFGIPIIDKIIKYNAKHGRGRNPLCLVLAPTRELARQVEKEFRESAPSLDTICLYGGTPIGQQMRQLDYGVDVAVGTPGRVIDLMKRGALNLSEVQFVVLDEADQMLQVGFAEDVEIILEKLPEKRQSMMFSATMPSWIRSLTKKYLNNPLTVDLVGDSDQKLADGITTYSIIADSYGRASIIGPLVTEHAKGGKCIVFTQTKRDADRLSYALARSFKCEALHGDISQSQRERTLAGFRDGHFNILVATDVAARGLDVPNVDLIIHYELPNNTETFVHRTGRTGRAGKKGSAILIYSQDQSRAVKIIEREVGSRFTELPSIAVERGSASMFEGIGSRSGGSFGGGMRDRGSSFGGRSGGGGYGGSSGGYGGGRSGGSSNRYSGDSDRSGFGSFGMRSPEGYGSDRSSQSGGRSSFGGGRSGGSSNNRSSGFGDFGSDRSSQSGGRSSFGGFGSNDGKRSY
# What was measured:
# [1] = molecular target: T1, GFP-AGO1 (ARGONAUTE1 fused to GFP, line …); test: affinity purification with mass spectrometry; conditions: remark: other sources report otherwise
# [2] = molecular target: T2, GFP-AGO1 (ARGONAUTE1 fused to GFP, line pAGO1:GFP-AGO1 ago1-27) (Arabidopsis thaliana); test: affinity purification with mass spectrometry
Binder,binding [1],binding [2]
B1,binds,–
B2,–,binds
B3,–,binds

# Source: publication doi:10.1101/2023.10.12.562039
